# Some entries share one result that the patent states for a list of compounds.
# Protein sequences, listed by entry. Tags and fused reporters are not part of them.
# UniProt Q16539, whole entry: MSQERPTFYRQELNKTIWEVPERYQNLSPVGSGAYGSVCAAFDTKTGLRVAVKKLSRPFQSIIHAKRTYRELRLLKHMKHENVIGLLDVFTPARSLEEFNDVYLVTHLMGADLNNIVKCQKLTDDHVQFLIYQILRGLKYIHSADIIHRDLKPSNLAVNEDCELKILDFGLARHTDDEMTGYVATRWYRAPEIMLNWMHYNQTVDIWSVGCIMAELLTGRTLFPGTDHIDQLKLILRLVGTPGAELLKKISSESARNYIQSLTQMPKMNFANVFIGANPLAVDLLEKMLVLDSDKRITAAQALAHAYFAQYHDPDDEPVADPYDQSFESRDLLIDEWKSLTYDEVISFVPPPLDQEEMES
# Molecular target: T1, human p38 kinase alpha (Homo sapiens, UniProt Q16539)
# T1 construct: made in house; host or cells: E. coli DH10B
# Experiment: p38 alpha kinase assay (PHAS-I / 32P-ATP format or EGFRP / 33P-ATP format)
# Assay type: biochemical
# Conditions: inhibition of activated human p38 kinase alpha; the text does not say which of the two in vitro formats was used
# Method: The ability of compounds to inhibit human p38 kinase alpha was evaluated using two in vitro assay methods. In the first method, activated human p38 kinase alpha phosphorylates a biotinylated substrate, PHAS-I (phosphorylated heat and acid stable protein-insulin inducible), in the presence of gamma ^32P-ATP (^32P-ATP). PHAS-I was biotinylated prior to the assay and provides a means of capturing the substrate, which is phosphorylated during the assay. p38 Kinase was activated by MKK6. Compounds were tested in 10 fold serial dilutions over the range of 100 μM to 0.001 μM using 1% DMSO. Each concentration of inhibitor was tested in triplicate.
# All reactions were carried out in 96 well polypropylene plates. Each reaction well contained 25 mM HEPES pH 7.5, 10 mM magnesium acetate and 50 μM unlabeled ATP. […] Activated human p38 kinase alpha was used at 1 μg per 50 μl reaction volume representing a final concentration of 0.3 μM. […]
# Following incubation, 20 μl of reaction mixture was transferred to a high capacity streptavidin coated filter plate (SAM-streptavidin-matrix, Promega) prewetted with phosphate buffered saline. […] The plates were sealed and counted.
# Compounds were tested in 10 fold serial dilutions over the range of 100 μM to 0.001 μM in 1% DMSO. […] 150 μl of Microscint 40 was then added to each well of the Microlite plate, and the plate was sealed, mixed, and counted.
compound,measurement,value
"CN(C(=O)Oc1ccn(Cc2ccccc2)c(=O)c1Br)c1ccccc1 [Example 56, 1-benzyl-3-bromo-2-oxo-1,2-dihydropyridin-4-yl Methyl(phenyl)carbamate]",IC50,> 100 µM

# Reference: US20050176775A1, “Substituted pyridinones” (priority 2003, published 2005)
